This passage reports binding results from article PMC11124926.

No constants are given. Whether binding was seen depends on the method and setting. For some assays here: In cells and extracts the contact can be indirect. Some results given as binding are weak or reduced against the parent protein; the word gives no strength. For some assays here: Sequences can lack the tags named with a protein.

Assay [1] deals with T1, Slender rice 1 (SLR1), bait of the yeast two-hybrid screening (rice) (UniProt Q7G7J6).
T1 sequence: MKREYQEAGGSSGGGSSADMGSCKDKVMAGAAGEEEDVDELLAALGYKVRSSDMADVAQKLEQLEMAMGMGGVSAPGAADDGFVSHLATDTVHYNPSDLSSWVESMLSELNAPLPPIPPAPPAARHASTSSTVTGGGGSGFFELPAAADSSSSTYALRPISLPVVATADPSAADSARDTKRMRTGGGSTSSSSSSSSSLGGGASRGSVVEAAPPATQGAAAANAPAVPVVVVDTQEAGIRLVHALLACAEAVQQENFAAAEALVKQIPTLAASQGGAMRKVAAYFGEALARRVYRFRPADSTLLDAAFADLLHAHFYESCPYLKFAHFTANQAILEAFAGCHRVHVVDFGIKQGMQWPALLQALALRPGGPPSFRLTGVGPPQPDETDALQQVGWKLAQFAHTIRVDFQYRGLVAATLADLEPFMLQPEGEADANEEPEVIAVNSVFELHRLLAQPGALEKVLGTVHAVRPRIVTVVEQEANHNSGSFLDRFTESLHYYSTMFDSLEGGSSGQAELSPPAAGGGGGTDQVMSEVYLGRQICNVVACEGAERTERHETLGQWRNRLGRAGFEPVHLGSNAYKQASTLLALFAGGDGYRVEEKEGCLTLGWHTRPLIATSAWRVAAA
As to the kind of experiment: two-hybrid; yeast two-hybrid screening with SLR1 as a bait.

The target in assay [2] is T2, SLR1-Myc (rice) (UniProt Q7G7J6).
T2 sequence: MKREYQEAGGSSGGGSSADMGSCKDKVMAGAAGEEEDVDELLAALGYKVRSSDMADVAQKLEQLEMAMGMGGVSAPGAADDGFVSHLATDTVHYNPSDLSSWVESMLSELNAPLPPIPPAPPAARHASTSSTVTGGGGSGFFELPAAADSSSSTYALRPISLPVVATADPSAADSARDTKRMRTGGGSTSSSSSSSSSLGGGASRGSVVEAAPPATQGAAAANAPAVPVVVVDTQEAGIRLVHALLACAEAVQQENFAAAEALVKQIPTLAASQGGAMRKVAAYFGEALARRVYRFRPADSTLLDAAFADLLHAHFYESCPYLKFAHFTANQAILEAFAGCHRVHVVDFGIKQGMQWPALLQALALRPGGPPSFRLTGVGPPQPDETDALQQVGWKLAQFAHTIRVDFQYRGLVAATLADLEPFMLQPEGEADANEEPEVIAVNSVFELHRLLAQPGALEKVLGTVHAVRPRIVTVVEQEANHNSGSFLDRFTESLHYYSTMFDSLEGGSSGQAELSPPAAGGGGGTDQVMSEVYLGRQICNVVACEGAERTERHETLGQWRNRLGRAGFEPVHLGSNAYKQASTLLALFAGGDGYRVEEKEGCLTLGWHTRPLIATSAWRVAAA
In words: co-IP; CIPK31-GFP + SLR1-Myc coexpressed in Nicotiana benthamiana leaves; total protein immunoprecipitated with anti-Myc (agarose beads, 3 h); blots with anti-GFP and anti-Myc; extraction buffer 150 mM NaCl, 0.1% NP40.

B1: Calcineurin B-like-interacting protein kinase 31 (CIPK31), interactor found in the SLR1 yeast two-hybrid screening (protein, UniProt Q6X4A2 1-449)
chain: MYRAKRAALSPKVKRRVGKYELGRTIGEGTFAKVRFAKNTENDEPVAIKILDKEKVQKHRLVEQIRREICTMKLVKHPNVVRLFEVMGSKARIFIVLEYVTGGELFEIIATNGRLKEEEARKYFQQLINAVDYCHSRGVYHRDLKLENLLLDASGNLKVSDFGLSALTEQVKADGLLHTTCGTPNYVAPEVIEDRGYDGAAADIWSCGVILYVLLAGFLPFEDDNIIALYKKISEAQFTCPSWFSTGAKKLITRILDPNPTTRITISQILEDPWFKKGYKPPVFDEKYETSFDDVDAAFGDSEDRHVKEETEDQPTSMNAFELISLNQALNLDNLFEAKKEYKRETRFTSQCPPKEIITKIEEAAKPLGFDIQKKNYKMRMENLKAGRKGNLNVATEVFQVAPSLHVVELKKAKGDTLEFQKFYRTLSTQLKDVVWKCDGEVEGNGAAA
Turning to B1, the binding result in assay [1] was “binds”.

B2: CIPK31-GFP (protein, UniProt Q6X4A2 1-449)
chain: MYRAKRAALSPKVKRRVGKYELGRTIGEGTFAKVRFAKNTENDEPVAIKILDKEKVQKHRLVEQIRREICTMKLVKHPNVVRLFEVMGSKARIFIVLEYVTGGELFEIIATNGRLKEEEARKYFQQLINAVDYCHSRGVYHRDLKLENLLLDASGNLKVSDFGLSALTEQVKADGLLHTTCGTPNYVAPEVIEDRGYDGAAADIWSCGVILYVLLAGFLPFEDDNIIALYKKISEAQFTCPSWFSTGAKKLITRILDPNPTTRITISQILEDPWFKKGYKPPVFDEKYETSFDDVDAAFGDSEDRHVKEETEDQPTSMNAFELISLNQALNLDNLFEAKKEYKRETRFTSQCPPKEIITKIEEAAKPLGFDIQKKNYKMRMENLKAGRKGNLNVATEVFQVAPSLHVVELKKAKGDTLEFQKFYRTLSTQLKDVVWKCDGEVEGNGAAA
Consider B2, for which the binding result in assay [2] is reported as “binds”.
